According to patent publication US9446063B2, “Methods for treating type-2 diabetes and obesity” (priority 2009, dated 2016):
Marks after values point to notes of the source that are not given here.

Assay: HPLC quantification of ascorbic acid, chlorogenic acid, caffeic acid, ferulic acid and rutin in tubers, tuber tissues and extracts
Conditions: for Virtual tuber (100 g FM) HPLC mean of 12 Canadian-grown cultivars, 1 month: 1 month storage; for Virtual tuber (100 g FM) HPLC mean of 12 Canadian-grown cultivars, 7 months: 7 months storage

| Structure (SMILES) | Virtual tuber (100 g FM) HPLC mean of 12 Canadian-grown cultivars, 1 month | Virtual tuber (100 g FM) HPLC mean of 12 Canadian-grown cultivars, 7 months |
| --- | --- | --- |
| O=C1O[C@H]([C@@H](O)CO)C(O)=C1O [ascorbic acid] | 30.67 ± 1.21^a mg/100 g FM | 5.99 ± 0.23^b mg/100 g FM |
| O=C(O)/C=C/c1ccc(O)c(O)c1 [caffeic acid] | 0.31 ± 0.03^a mg/100 g FM | 0.02 ± 0.01^b mg/100 g FM |
| COc1cc(/C=C/C(=O)O)ccc1O [ferulic acid] | 0.38 ± 0.04^a mg/100 g FM | 0.04 ± 0.01^b mg/100 g FM |
